Changes are numbered by the printed parent chain. Results are given in words; binding and its absence hold for the method and conditions named. In cells and extracts the contact can be indirect. A yes stands for co-enrichment or nearness to the bait. Other partners may have been found. For part of these data: Sequences can lack the tags named with a protein.
Key:
Experiment in all cases: affinity purification with mass spectrometry
[1] = target: Rpl12b-FLAG (S. cerevisiae) (UniProt P0CX54)
[2] = target: T1, Rpl34a-FLAG (S. cerevisiae) (UniProt P87262)
T1 sequence: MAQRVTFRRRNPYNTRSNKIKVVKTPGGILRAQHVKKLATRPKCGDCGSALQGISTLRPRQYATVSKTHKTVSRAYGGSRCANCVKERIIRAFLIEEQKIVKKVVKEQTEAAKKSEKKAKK

Sequences of proteins named here, by UniProt entry; tags and fusion partners are left off.
UniProt P0CX54: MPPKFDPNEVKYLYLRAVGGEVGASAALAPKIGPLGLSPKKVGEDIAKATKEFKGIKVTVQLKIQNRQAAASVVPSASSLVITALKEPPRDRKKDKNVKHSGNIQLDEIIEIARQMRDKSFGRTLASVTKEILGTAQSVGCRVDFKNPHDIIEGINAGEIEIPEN
UniProt P0CX82: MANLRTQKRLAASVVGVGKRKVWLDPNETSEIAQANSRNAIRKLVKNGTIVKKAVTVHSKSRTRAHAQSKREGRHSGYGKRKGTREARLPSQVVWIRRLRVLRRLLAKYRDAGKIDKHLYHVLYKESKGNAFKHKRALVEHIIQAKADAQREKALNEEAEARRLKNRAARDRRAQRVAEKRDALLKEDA
UniProt P0CX83: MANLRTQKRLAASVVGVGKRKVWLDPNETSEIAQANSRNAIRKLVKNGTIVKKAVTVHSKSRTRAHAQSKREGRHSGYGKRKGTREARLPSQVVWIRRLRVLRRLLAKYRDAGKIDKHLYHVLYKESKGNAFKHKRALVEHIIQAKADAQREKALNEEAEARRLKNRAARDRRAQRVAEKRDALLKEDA
UniProt P0CX53: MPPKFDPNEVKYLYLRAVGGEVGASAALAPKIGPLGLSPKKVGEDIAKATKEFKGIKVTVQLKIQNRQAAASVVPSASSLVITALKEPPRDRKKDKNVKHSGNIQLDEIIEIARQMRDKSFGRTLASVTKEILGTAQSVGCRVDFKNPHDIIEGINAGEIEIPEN

[3] = target: Rpl19a-FLAG (S. cerevisiae) (UniProt P0CX82)
[4] = target: T2, Rpl34b-FLAG (S. cerevisiae) (UniProt P40525)
T2 sequence: T1 sequence with I90V, A119S

[5] = target: Rpl19b-FLAG (S. cerevisiae) (UniProt P0CX83)
[6] = target: Rpl12a-FLAG (S. cerevisiae) (UniProt P0CX53)

Measured: binding

Rps14b (from UniProt P39516 1-138)
binds: all assays above

From doi:10.1101/2024.03.18.585503
